{"source": "patent US20130019345A1", "about": "(NATIONAL UNIVERSITY CORPORATION NARA INSTITUTE OF SCIENCE …, published 2013)", "binders": {"B1": {"name": "OsFD1 having a mutation of S192E in a region of positions 147 to 195 in SEQ ID NO: 3, not fused with GST (other)", "chain": "ARVNNLETEVEQLKQENKMLRVKYEQLRKTVEVPVPVRRTLQRVLEAPF"}}, "molecular_target": "T1, GST-fused GF14c protein (full-length GF14c, residues 1 to 256) (rice) (UniProt Q6ZKC0)", "T1 sequence": "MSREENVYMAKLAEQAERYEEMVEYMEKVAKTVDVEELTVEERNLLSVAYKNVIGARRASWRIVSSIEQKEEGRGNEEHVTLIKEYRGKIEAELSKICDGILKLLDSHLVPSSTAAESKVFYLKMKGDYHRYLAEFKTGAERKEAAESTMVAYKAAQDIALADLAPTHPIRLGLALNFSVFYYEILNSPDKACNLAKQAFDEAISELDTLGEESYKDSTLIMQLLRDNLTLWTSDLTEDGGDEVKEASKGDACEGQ", "assay": "in vitro GST pull-down, GST-GF14c on glutathione resin, SDS-PAGE", "note": "Results are given in words; binding and its absence hold for the method and conditions named. In cells and extracts the contact can be indirect. Some results given as binding are weak or reduced against the parent protein; the word gives no strength. Sequences can lack the tags named with a protein.", "data": [{"binder": "B1", "values": [{"measurement": "binding", "result": "binds"}]}]}
